Data as given in PubChem BioAssay AID1259424 (University of Nebraska Medical Center, 2018)

Test: 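Find knockdowns that reproduce the expression shifts seen after KSR1 loss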 (primary screen)
Cell system: human HCT116 colon cancer cells
Knock-down reagent: siRNA pool against human genes, 50 nM
Measured: 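Log2 levels of six mRNAs (branched-DNA multiplex), adjusted by two reference genes and the non-targeting median, then scored against the average KSR1 knockdown pattern as Pearson r and euclidean distance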
Reading the numbers: mean correlation with KSR1 profile: higher = expression change more like KSR1 knockdown
In all, the deposit lists about 14,000 reagents; shown is a part drawn at random. 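Higher correlation or smaller distance means closer resemblance to KSR1 loss; control wells, including KSR1 knockdowns, recur on many plates.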 Not all columns of the deposit are shown. No sequences are given here. Not stated in the record: the time to read-out.

THUMPD2 (GeneID 80745) → mean correlation with KSR1 profile = 0.123
PRKCSH (GeneID 5589) → mean correlation with KSR1 profile = 0.361
ANO3 (GeneID 63982) → mean correlation with KSR1 profile = -0.479
FAM50A (GeneID 9130) → mean correlation with KSR1 profile = -0.287
ARHGEF38 (GeneID 54848) → mean correlation with KSR1 profile = -0.0956
ID3 (GeneID 3399) → mean correlation with KSR1 profile = -0.0857

Already shown: entries from further up.
PRKCSH (GeneID 5589) → mean correlation with KSR1 profile = 0.361
ANO3 (GeneID 63982) → mean correlation with KSR1 profile = -0.479

Further reagents follow.
DMRTA1 (GeneID 63951) → mean correlation with KSR1 profile = -0.56
ST14 (GeneID 6768) → mean correlation with KSR1 profile = 0.461
TBC1D12 (GeneID 23232) → mean correlation with KSR1 profile = -0.275
RARRES1 (GeneID 5918) → mean correlation with KSR1 profile = -0.343
NKD2 (GeneID 85409) → mean correlation with KSR1 profile = 0.378
H4C9 (GeneID 8294) → mean correlation with KSR1 profile = 0.744
